No constants are given. Whether binding was seen depends on the method and setting. Some entries that bind do so weakly or less than the wild type. Sequences can lack the tags named with a protein.
Molecular target: T1, MukB (wild type, MukB-His) (Escherichia coli, UniProt P22523 1-1486)
T1 construct: MukB, the SMC protein of Escherichia coli MukBEF; wild type; The end of the tag is read from the printed name 'MukB-His'; The same construct was used with co-purified AcpP or depleted of AcpP by an extended salt gradient on heparin; also called WT MukB; AcpP-depleted MukB; source: E. coli C3013I (NEB), pET vector, purified (TALON, HiTrap Heparin, Superdex 200); not shown: His tag, C-terminal, kept
T1 sequence (looked up): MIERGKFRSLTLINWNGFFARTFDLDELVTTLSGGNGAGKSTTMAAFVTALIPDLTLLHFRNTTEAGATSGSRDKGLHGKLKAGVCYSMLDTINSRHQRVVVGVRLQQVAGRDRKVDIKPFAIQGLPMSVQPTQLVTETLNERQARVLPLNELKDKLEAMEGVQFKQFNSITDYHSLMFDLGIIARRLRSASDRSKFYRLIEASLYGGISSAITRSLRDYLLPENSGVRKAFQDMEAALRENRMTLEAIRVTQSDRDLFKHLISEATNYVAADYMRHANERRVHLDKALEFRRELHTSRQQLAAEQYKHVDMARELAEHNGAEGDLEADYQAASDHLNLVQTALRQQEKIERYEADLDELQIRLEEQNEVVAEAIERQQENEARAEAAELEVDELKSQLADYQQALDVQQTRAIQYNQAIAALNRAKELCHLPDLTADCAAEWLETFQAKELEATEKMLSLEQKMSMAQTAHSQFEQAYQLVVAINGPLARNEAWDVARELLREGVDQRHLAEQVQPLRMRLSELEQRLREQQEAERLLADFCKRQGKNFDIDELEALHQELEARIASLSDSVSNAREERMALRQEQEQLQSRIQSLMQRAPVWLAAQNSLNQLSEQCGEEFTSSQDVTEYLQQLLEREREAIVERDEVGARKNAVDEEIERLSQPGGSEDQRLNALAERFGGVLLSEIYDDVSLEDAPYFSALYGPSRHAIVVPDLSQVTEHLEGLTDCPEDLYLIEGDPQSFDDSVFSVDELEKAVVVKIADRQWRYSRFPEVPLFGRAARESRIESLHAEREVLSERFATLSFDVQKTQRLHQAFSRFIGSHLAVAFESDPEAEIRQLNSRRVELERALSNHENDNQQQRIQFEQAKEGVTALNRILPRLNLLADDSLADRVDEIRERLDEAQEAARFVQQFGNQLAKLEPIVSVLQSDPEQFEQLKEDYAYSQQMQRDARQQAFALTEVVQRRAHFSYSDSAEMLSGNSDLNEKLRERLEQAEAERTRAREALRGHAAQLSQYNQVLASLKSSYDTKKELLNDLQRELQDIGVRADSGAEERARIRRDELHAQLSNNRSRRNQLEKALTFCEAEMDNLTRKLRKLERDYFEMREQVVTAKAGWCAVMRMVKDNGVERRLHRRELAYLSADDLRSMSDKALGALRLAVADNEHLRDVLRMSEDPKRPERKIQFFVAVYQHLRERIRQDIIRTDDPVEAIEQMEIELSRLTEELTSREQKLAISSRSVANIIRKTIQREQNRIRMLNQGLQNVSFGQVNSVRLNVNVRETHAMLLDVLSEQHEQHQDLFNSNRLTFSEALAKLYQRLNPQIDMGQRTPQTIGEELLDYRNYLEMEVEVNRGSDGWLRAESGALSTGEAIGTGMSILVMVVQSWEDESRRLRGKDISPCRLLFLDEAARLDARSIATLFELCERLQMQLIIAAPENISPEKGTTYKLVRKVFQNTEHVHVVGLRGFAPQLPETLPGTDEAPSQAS
Test: co-purification (SDS-PAGE of the purified His-tagged protein); native AcpP (or MukF) of the E. coli host carried along with MukB-His or its variants through TALON, heparin and Superdex 200; read by SDS-PAGE

binding: binds
B1: MukF (His-MukF) (natural protein, Escherichia coli, UniProt P60293 1-440, looked up)
chain: MSEFSQTVPELVAWARKNDFSISLPVDRLSFLLAVATLNGERLDGEMSEGELVDAFRHVSDAFEQTSETIGVRANNAINDMVRQRLLNRFTSEQAEGNAIYRLTPLGIGITDYYIRQREFSTLRLSMQLSIVAGELKRAADAAEEGGDEFHWHRNVYAPLKYSVAEIFDSIDLTQRLMDEQQQQVKDDIAQLLNKDWRAAISSCELLLSETSGTLRELQDTLEAAGDKLQANLLRIQDATMTHDDLHFVDRLVFDLQSKLDRIISWGQQSIDLWIGYDRHVHKFIRTAIDMDKNRVFAQRLRQSVQTYFDEPWALTYANADRLLDMRDEEMALRDEEVTGELPEDLEYEEFNEIREQLAAIIEEQLAVYKTRQVPLDLGLVVREYLSQYPRARHFDVARIVIDQAVRLGVAQADFTGLPAKWQPINDYGAKVQAHVIDKY
notes: MukF, the kleisin of Escherichia coli MukBEF; The end of the tag is read from the printed name 'His-MukF'; also called kleisin MukF; source: E. coli C3013I (NEB), pET vector, purified (TALON, HiTrap DEAE FF, Superdex 200)

— article PMC8602292, “Acyl carrier protein promotes MukBEF action in Escherichia coli chromosome organization-segregation” (Nature Communications, 2021)
